From the supplement of paper PMC8728848
This is one part of the list.

How the values were obtained:
Assay in all cases: glycan array binding signal (z-score within array); higher = stronger binding
Settings in all cases: glycan notation: IUPAC condensed, linker removed
[1] = molecular target: GlcNAc(b1-4)GlcNAc(b1-4)GlcNAc(b1-4)GlcNAc(b1-4)GlcNAc(b1-4)GlcNAc
How it was run: (§1)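 Negative Z-scores can be read as non-binding. The Z-score is calculated within each array and then averaged across arrays of one protein sequence at different concentrations or buffers and across linkers. Arrays, 3228 in all, were curated from the Consortium for Functional Glycomics database and kept only where the protein sequence was available.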

[2] = molecular target: GlcNAc(b1-4)[GlcNAc(b1-6)]GalNAc
How it was run: as §1

[3] = molecular target: GlcNAc(b1-6)Gal(b1-4)GlcNAc
How it was run: as §1

[4] = molecular target: GlcNAc(b1-6)GalNAc
How it was run: as §1

[5] = molecular target: GlcNAc6S(b1-3)Gal(b1-4)GlcNAc
How it was run: as §1

[6] = molecular target: Kdn(a2-3)Gal(b1-3)GalNAc
How it was run: as §1

[7] = molecular target: Kdn(a2-3)Gal(b1-3)GlcNAc
How it was run: as §1

[8] = molecular target: Kdn(a2-3)Gal(b1-4)Glc
How it was run: as §1

[9] = molecular target: Kdn(a2-3)Gal(b1-4)GlcNAc
How it was run: as §1

[10] = molecular target: Kdn(a2-3)Gal(b1-4)[Fuc(a1-3)]GlcNAc
How it was run: as §1

[11] = molecular target: Kdn(a2-6)Gal(b1-4)GlcNAc
How it was run: as §1

[12] = molecular target: Man(a1-2)Man(a1-2)Man(a1-3)Man
How it was run: as §1

[13] = molecular target: Man(a1-2)Man(a1-2)Man(a1-6)[Man(a1-3)]Man
How it was run: as §1

[14] = molecular target: Man(a1-2)Man(a1-3)Man
How it was run: as §1

[15] = molecular target: Man(a1-2)Man(a1-3)[Man(a1-2)Man(a1-6)]Man
How it was run: as §1

[16] = molecular target: Man(a1-2)Man(a1-3)[Man(a1-2)Man(a1-6)]Man(a1-6)[Man(a1-2)Man(a1-2)Man(a1-3)]Man
How it was run: as §1

[17] = molecular target: Man(a1-2)Man(a1-3)[Man(a1-2)Man(a1-6)]Man(a1-6)[Man(a1-2)Man(a1-2)Man(a1-3)]Man(b1-4)GlcNAc(b1-4)GlcNAc
How it was run: as §1

[18] = molecular target: Man(a1-2)Man(a1-3)[Man(a1-6)]Man(a1-6)[Man(a1-2)Man(a1-3)]Man(b1-4)GlcNAc(b1-4)GlcNAc
How it was run: as §1

[19] = molecular target: Man(a1-2)Man(a1-6)[Man(a1-3)]Man(a1-6)[Man(a1-2)Man(a1-2)Man(a1-3)]Man
How it was run: as §1

[20] = molecular target: Man(a1-2)Man(a1-6)[Man(a1-3)]Man(a1-6)[Man(a1-2)Man(a1-2)Man(a1-3)]Man(b1-4)GlcNAc(b1-4)GlcNAc
How it was run: as §1

[21] = molecular target: Man(a1-3)[Man(a1-6)]Man
How it was run: as §1

[22] = molecular target: Man(a1-3)[Man(a1-6)]Man(a1-6)[Man(a1-2)Man(a1-3)]Man(b1-4)GlcNAc(b1-4)GlcNAc
How it was run: as §1

[23] = molecular target: Man(a1-3)[Man(a1-6)]Man(a1-6)[Man(a1-3)]Man
How it was run: as §1

[24] = molecular target: Man(a1-3)[Man(a1-6)]Man(a1-6)[Man(a1-3)]Man(b1-4)GlcNAc(b1-4)GlcNAc
How it was run: as §1

[25] = molecular target: Man(a1-3)[Man(a1-6)]Man(b1-4)GlcNAc(b1-4)GlcNAc
How it was run: as §1

[26] = molecular target: Man(a1-3)[Man(a1-6)]Man(b1-4)GlcNAc(b1-4)[Fuc(a1-6)]GlcNAc
How it was run: as §1

[27] = molecular target: Man(a1-6)Man
How it was run: as §1

[28] = molecular target: Man(b1-4)GlcNAc
How it was run: as §1

[29] = molecular target: MurNAc(b1-4)GlcNAc
How it was run: as §1

[30] = molecular target: Neu5Ac(a2-3)Gal
How it was run: as §1

[31] = molecular target: Neu5Ac(a2-3)Gal(b1-3)GalNAc
How it was run: as §1

[32] = molecular target: Neu5Ac(a2-3)Gal(b1-3)GalNAc(b1-3)Gal(a1-4)Gal(b1-4)Glc
How it was run: as §1

[33] = molecular target: Neu5Ac(a2-3)Gal(b1-3)GalNAc(b1-4)[Neu5Ac(a2-3)]Gal(b1-4)Glc
How it was run: as §1

[34] = molecular target: Neu5Ac(a2-3)Gal(b1-3)GalNAc(b1-4)[Neu5Ac(a2-8)Neu5Ac(a2-3)]Gal(b1-4)Glc
How it was run: as §1

[35] = molecular target: Neu5Ac(a2-3)Gal(b1-3)GalNAc6S
How it was run: as §1

[36] = molecular target: Neu5Ac(a2-3)Gal(b1-3)GlcNAc
How it was run: as §1

[37] = molecular target: Neu5Ac(a2-3)Gal(b1-3)GlcNAc(b1-2)Man
How it was run: as §1

[38] = molecular target: Neu5Ac(a2-3)Gal(b1-3)GlcNAc(b1-2)Man(a1-3)[GlcNAc(b1-4)][Neu5Ac(a2-3)Gal(b1-3)GlcNAc(b1-2)Man(a1-6)]Man(b1-4)GlcNAc(b1-4)GlcNAc
How it was run: as §1

[39] = molecular target: Neu5Ac(a2-3)Gal(b1-3)GlcNAc(b1-2)Man(a1-3)[Neu5Ac(a2-3)Gal(b1-3)GlcNAc(b1-2)Man(a1-6)]Man(b1-4)GlcNAc(b1-4)GlcNAc
How it was run: as §1

[40] = molecular target: Neu5Ac(a2-3)Gal(b1-3)GlcNAc(b1-3)Gal(b1-3)GlcNAc
How it was run: as §1

[41] = molecular target: Neu5Ac(a2-3)Gal(b1-3)GlcNAc(b1-3)Gal(b1-4)GlcNAc
How it was run: as §1

[42] = molecular target: Neu5Ac(a2-3)Gal(b1-3)GlcNAc(b1-3)GalNAc
How it was run: as §1

[43] = molecular target: Neu5Ac(a2-3)Gal(b1-3)GlcNAc(b1-4)Gal(b1-4)Glc
How it was run: as §1

[44] = molecular target: Neu5Ac(a2-3)Gal(b1-3)GlcNAc(b1-6)GalNAc
How it was run: as §1

[45] = molecular target: Neu5Ac(a2-3)Gal(b1-3)GlcNAc6S
How it was run: as §1

B1: EULS2 M3 (Oryza sativa) (protein)
chain: MVYCRANPNYAMTARNGAVVLAPANPKDEYQHWIKDMRWSTSIKDEEGYPAFALVNKATGQAIKHSLGQSHPVRLVPYNPEVMDESVLWTESRDVGNGFRCIRMVNNIYLNFDAFHGDKYHGGVRDGTDIVLWKLCEGDSLRWKIQPYYILEQKLISEEDLNSAVDHHHHHH
Which results are given for B1?
glycan array binding signal (z-score) [1]: -0.977; glycan array binding signal (z-score) [2]: -0.16; glycan array binding signal (z-score) [3]: 1.64; glycan array binding signal (z-score) [4]: -0.608; glycan array binding signal (z-score) [5]: -0.064; glycan array binding signal (z-score) [6]: -0.224; glycan array binding signal (z-score) [7]: -0.44; glycan array binding signal (z-score) [8]: -0.045; glycan array binding signal (z-score) [9]: -0.754; glycan array binding signal (z-score) [10]: 0.28; glycan array binding signal (z-score) [11]: -0.599; glycan array binding signal (z-score) [12]: -0.295; glycan array binding signal (z-score) [13]: 0.213; glycan array binding signal (z-score) [14]: 0.653; glycan array binding signal (z-score) [15]: -0.066; glycan array binding signal (z-score) [16]: -0.24; glycan array binding signal (z-score) [17]: -0.505; glycan array binding signal (z-score) [18]: -0.381; glycan array binding signal (z-score) [19]: 0.54; glycan array binding signal (z-score) [20]: 0.19; glycan array binding signal (z-score) [21]: -0.176; glycan array binding signal (z-score) [22]: -0.43; glycan array binding signal (z-score) [23]: 1.37; glycan array binding signal (z-score) [24]: 0.601; glycan array binding signal (z-score) [25]: 0.133; glycan array binding signal (z-score) [26]: 0.16; glycan array binding signal (z-score) [27]: 0.528; glycan array binding signal (z-score) [28]: 0.117; glycan array binding signal (z-score) [29]: -0.081; glycan array binding signal (z-score) [30]: -1.29; glycan array binding signal (z-score) [31]: 0.05; glycan array binding signal (z-score) [32]: 0.635; glycan array binding signal (z-score) [33]: -0.272; glycan array binding signal (z-score) [34]: -0.176; glycan array binding signal (z-score) [35]: 0.579; glycan array binding signal (z-score) [36]: -0.871; glycan array binding signal (z-score) [37]: -0.241; glycan array binding signal (z-score) [38]: 0.433; glycan array binding signal (z-score) [39]: 0.519; glycan array binding signal (z-score) [40]: -0.139; glycan array binding signal (z-score) [41]: -0.11; glycan array binding signal (z-score) [42]: -0.156; glycan array binding signal (z-score) [43]: -0.312; glycan array binding signal (z-score) [44]: -0.549; glycan array binding signal (z-score) [45]: -0.066
